Changes are numbered by the printed parent chain. Results are given in words; binding and its absence hold for the method and conditions named. In cells and extracts the contact can be indirect. Some entries that bind do so weakly or less than the wild type. Where a sequence is shown, tags or fusion partners need not be part of it.
B1: myc-tagged full-length ZAP mutant Zm113 (protein, UniProt Q8K3Y6 1-776)
chain: MADPGVCCFITKILCAHGGRMTLEELLGEIRLPEAQLYELLETAGPDRFVLLETGGQAGITRSVVATTRARVCRRKYCQRPCDSLHLCKLNLLGRCHYAQSQRNLCKYSHDVAAAQNFQILKNHELSGLNQEELACLLVQSDPFFLPEICKSYKGEGRKQTCGQPQPCERLHICEHFTRGNCSYLNCLRSHNLMDRKVLTIMREHGLSPDVVQNIQDICNNKHARRNPPGTRAAHPHRRGGAHRDRSKSRDRFLHNSLEFLSPVVSPLGSGPPSPDVTSCKDSLEDVSVDVTQKFKYLGTHDRAQLSPVSSKAAGVQGPSQMRASQEFSEDGNLDDIFSRNRSDSSSSRASAAKVAQRNEAVAMKMGMEVKGKKEAPDIDRVPFLNSYIDGVTMEKASVSGIPGKKFTANDLENLLLLNDTWKNVAKPQDLQTTGRITDSGQDKAFLQNKYGGNPVWASASTHNAPNGSSQIMDETPNVSKSSTSGFAIKPAIAGGKEAVYSGVQSPRSQVLAVPGEATTPVQSNRLPQSPLSSSSHRAAASGSPGKNSTHTSVSPAIESSRMTSDPDEYLLRYILNPLFRMDNHGPKEICQDHLYKGCQQSHCDRSHFHLPYRWQMFVYTTWRDFQDMESIEQAYCDPHVELILIENHQINFQKMTCDSYPIRRLSTPSYEEKPLSAVFATKWIWYWKNEFNEYIQYGNESPGHTSSDINSAYLESFFQSCPRGVLPFQAGSQKYELSFQGMIQTNIASKTQRHVVRRPVFVSSNDVEQKRRGPE
B2: myc-tagged full-length ZAP mutant Zm133 (protein, UniProt Q8K3Y6 1-776)
chain: B1 chain with A113L, A114S, A115E, E133A, L134A
B3: myc-tagged full-length ZAP mutant Zm23 (protein, UniProt Q8K3Y6 1-776)
chain: B1 chain with L23A, E24A, E25A, A113L, A114S, A115E
B4: myc-tagged full-length ZAP mutant Zm53 (protein, UniProt Q8K3Y6 1-776)
chain: B1 chain with E53A, T54A, G55A, A113L, A114S, A115E
B5: myc-tagged CZAP429 (amino acids 429-776 of ZAP) (domain or fragment, UniProt Q8K3Y6 429-776)
chain: QDLQTTGRITDSGQDKAFLQNKYGGNPVWASASTHNAPNGSSQIMDETPNVSKSSTSGFAIKPAIAGGKEAVYSGVQSPRSQVLAVPGEATTPVQSNRLPQSPLSSSSHRAAASGSPGKNSTHTSVSPAIESSRMTSDPDEYLLRYILNPLFRMDNHGPKEICQDHLYKGCQQSHCDRSHFHLPYRWQMFVYTTWRDFQDMESIEQAYCDPHVELILIENHQINFQKMTCDSYPIRRLSTPSYEEKPLSAVFATKWIWYWKNEFNEYIQYGNESPGHTSSDINSAYLESFFQSCPRGVLPFQAGSQKYELSFQGMIQTNIASKTQRHVVRRPVFVSSNDVEQKRRGPE

The chains behind the UniProt entries cited, without tags or fusion partners.
UniProt Q9NQT4: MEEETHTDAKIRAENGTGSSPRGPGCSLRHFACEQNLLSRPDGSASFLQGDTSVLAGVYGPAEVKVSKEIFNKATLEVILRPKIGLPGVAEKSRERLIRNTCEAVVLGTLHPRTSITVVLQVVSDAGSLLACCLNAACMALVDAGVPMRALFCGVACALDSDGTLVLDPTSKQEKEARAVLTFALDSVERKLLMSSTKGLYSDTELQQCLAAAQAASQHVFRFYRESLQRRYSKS

Target: endogenous exosome component Rrp46 (human (endogenous in 293TRex)) (UniProt Q9NQT4)
Assay: co-IP; endogenous Rrp46 immunoprecipitated with rabbit anti-hRrp46p and proteinG plus-agarose from lysates of cells expressing myc-tagged ZAP proteins; lysis buffer B (30 mM Hepes pH7.6, 100 mM NaCl, 0.5% NP-40) with 100 ug/ml RNase A; 4°C, 2 h; Western blot with anti-myc; pre-immune serum as control

Binder	binding
B1	binds
B2	binds
B3	binds
B4	binds
B5	no binding
